# From patent publication US20090227538A1, “N-(Hetero)Aryl Indole Derivatives as Pesticides” (priority 2005, published 2009)
# Some of these results come from one statement about several compounds together.
# Tested on: Rhipicephalus sanguineus (Dog Tick)
# Assay: Activity in vivo against Rhipicephalus sanguineus (dog tick) on rabbits
# Conditions: at 240 mg/m^2, spray on rabbit ears, first infestation
row,Compound,"efficacy (comparison with placebo group, Abbot's formula)"
1,C#CC(O)(c1cn(-c2c(Cl)cc(C(F)(F)F)cc2Cl)c2cc(F)cc(F)c12)C(F)(F)F (centres unmarked) [Compound 1.239],more than 80%
2,CC(O)(c1cn(-c2c(Cl)cc(C(F)(F)F)cc2Cl)c2cc(F)cc(F)c12)C(F)(F)F (centres unmarked) [Compound 1.112],more than 80%
3,CC(O)(c1c(CCl)n(-c2c(Cl)cc(C(F)(F)F)cc2Cl)c2ccccc12)C(F)(F)F (racemic) [Compound 3.1136],more than 80%
4,C#CC(O)(c1c(C)n(-c2c(Cl)cc(C(F)(F)F)cc2Cl)c2ccccc12)C(F)(F)F (racemic) [Compound 3.1135],more than 80%
5,C=CC(O)(c1cn(-c2c(Cl)cc(C(F)(F)F)cc2Cl)c2ccccc12)C(F)F (centres unmarked) [Compound 1.226],more than 80%
6,CC(O)(c1c(CBr)n(-c2c(Cl)cc(C(F)(F)F)cc2Cl)c2ccccc12)C(F)(F)F (racemic) [Compound 3.1133],more than 80%
7,C=CC(O)(c1cn(-c2c(Cl)cc(C(F)(F)F)cc2Cl)c2cc(F)cc(F)c12)C(F)(F)F (centres unmarked) [Compound 1.238],more than 80%
8,CCOCOC(C)(c1cn(-c2c(Cl)cc(C(F)(F)F)cc2Cl)c2cccc(F)c12)C(F)(F)F (centres unmarked) [Compound 1.117],more than 80%
